Test results taken from publication PMC4703059.
No constants are given. Whether binding was seen depends on the method and setting. Binding calls can cover weak binding; strength is not graded here. Sequences can lack the tags named with a protein.

Target: DENN domain of Lst4 (truncated two-hybrid construct) (S. cerevisiae)
Test: two-hybrid; Lst7 as prey in pACT2 (GAL activation domain); Lst4, its truncations and COPII coat genes as bait in pLexPD (LexA DNA binding domain); L40 reporter strain; serial dilutions spotted on plates with and without histidine; LacZ beta-galactosidase assay as second reporter

- binding: binds
B1: Lst7 (GAL activation domain fusion, pACT2) (protein, UniProt P53237 1-242)
chain: MSSTVISLAHFCDKHGPRIISVTQSAEKGTLGEELLVPDYPTESYCESCLLQFPEESTRSMRCFIEDVPFITTQYSSIRYQLLNSIIKRAFSEETMIYDNMPFIFFDDLRGLNLVIGFKLYDENARGNERRYCFILTVDSRSHDDSMKMLSEHWNFIIGGFDKMIAYIKNIHKSEFLGKNKTVENNLETLNNNAFIGSYLRANKSKFGRNLVSLTDDKFLFVRIHKWNSFLLHTVMNENKLP
